These results are taken from PMC11470042.

Amino acid sequences for entries named in this document (tags omitted).
UniProt P09012: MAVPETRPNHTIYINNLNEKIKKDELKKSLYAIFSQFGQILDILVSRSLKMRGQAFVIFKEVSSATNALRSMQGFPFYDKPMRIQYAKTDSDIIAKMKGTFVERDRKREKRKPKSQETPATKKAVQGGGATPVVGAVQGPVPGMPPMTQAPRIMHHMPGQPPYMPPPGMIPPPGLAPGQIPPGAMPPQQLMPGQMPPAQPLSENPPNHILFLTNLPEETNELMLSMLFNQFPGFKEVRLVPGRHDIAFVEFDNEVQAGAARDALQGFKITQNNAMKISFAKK
UniProt Q9Y297: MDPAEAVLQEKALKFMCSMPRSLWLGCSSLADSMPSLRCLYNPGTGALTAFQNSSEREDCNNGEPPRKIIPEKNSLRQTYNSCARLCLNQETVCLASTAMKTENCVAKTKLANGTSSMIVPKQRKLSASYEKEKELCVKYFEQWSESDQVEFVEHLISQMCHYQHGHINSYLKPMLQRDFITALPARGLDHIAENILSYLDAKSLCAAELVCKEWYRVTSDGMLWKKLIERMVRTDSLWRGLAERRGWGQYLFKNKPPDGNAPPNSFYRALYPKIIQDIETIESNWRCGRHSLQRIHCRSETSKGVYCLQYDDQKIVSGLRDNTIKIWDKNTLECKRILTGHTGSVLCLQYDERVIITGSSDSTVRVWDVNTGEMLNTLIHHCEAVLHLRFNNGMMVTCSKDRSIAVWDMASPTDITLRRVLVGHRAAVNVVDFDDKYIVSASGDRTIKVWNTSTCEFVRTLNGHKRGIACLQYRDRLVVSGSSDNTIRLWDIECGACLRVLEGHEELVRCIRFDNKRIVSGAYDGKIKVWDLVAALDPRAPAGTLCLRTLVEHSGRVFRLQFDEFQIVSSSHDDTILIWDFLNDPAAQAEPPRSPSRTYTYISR
UniProt Q9UKB1: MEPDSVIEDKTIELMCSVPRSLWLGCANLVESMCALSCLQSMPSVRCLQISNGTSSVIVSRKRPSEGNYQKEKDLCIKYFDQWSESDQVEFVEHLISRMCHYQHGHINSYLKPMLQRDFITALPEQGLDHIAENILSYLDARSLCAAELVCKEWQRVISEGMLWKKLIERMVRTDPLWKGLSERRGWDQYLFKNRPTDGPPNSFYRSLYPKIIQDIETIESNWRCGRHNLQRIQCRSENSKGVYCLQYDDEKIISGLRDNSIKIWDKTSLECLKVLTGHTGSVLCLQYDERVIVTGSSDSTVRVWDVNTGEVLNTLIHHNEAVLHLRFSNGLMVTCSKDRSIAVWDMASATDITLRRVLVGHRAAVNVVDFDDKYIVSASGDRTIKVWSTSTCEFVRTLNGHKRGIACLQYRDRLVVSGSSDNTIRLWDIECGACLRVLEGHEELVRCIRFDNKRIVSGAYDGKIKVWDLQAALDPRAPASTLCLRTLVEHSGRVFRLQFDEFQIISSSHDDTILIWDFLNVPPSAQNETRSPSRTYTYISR

Test [1] deals with FLAG-tagged full-length SNRPA (UniProt P09012). The experiment in a line: co-IP; co-transfection of Myc-tagged BTRC and FLAG-tagged SNRPA (full length or truncations of one partner).
The target of test [2] is Small ribonucleoprotein peptide A (SNRPA) (human (endogenous in PANC-1)) (UniProt P09012). The experiment in a line: co-IP; cell lysates of PANC-1 cells incubated with SNRPA antibodies, blotted for BTRC and FBXW11; also in PANC-1 GR and PANC-1 WT cells transfected with sh-cNEK6, OE-cNEK6, or wild-type or mutant cNEK6.

No constants are given. Whether binding was seen depends on the method and setting. Binding seen in cells or lysates may run through a third protein. Some entries that bind do so weakly or less than the wild type.

With “Myc-tagged full-length BTRC (from UniProt Q9Y297 1-605)”, in test [1], the binding entry was “binds”.
Consider “FBXW11, E3 ligase (from UniProt Q9UKB1 1-542)”, for which the binding entry in test [2] is listed as “no binding”.
Turning to “BTRC, ubiquitin E3 ligase (from UniProt Q9Y297 1-605)”, the binding result in test [2] is on record as “binds”.
